Measured values published in the supplement of paper PMC10849652.
This is one part of the list.

Protein sequences, listed by entry. Tags and fused reporters are not part of them. Lines headed by an entry give the natural chain unless they say otherwise; changes in a name come on top.
UniProt Q7Z7B1: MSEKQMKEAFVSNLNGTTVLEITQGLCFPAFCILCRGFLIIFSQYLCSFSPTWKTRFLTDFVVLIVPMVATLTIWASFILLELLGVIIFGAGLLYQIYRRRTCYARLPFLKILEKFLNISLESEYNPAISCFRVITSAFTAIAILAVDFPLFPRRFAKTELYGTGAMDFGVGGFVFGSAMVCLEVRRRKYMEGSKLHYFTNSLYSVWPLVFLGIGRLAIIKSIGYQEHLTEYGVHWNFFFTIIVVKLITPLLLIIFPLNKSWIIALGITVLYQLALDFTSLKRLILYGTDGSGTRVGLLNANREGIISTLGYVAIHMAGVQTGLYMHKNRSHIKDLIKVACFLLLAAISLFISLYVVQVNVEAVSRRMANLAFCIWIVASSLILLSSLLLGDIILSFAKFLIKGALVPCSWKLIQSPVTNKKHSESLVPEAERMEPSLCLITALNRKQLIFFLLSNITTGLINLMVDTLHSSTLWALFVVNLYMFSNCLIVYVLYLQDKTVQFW
UniProt Q16875: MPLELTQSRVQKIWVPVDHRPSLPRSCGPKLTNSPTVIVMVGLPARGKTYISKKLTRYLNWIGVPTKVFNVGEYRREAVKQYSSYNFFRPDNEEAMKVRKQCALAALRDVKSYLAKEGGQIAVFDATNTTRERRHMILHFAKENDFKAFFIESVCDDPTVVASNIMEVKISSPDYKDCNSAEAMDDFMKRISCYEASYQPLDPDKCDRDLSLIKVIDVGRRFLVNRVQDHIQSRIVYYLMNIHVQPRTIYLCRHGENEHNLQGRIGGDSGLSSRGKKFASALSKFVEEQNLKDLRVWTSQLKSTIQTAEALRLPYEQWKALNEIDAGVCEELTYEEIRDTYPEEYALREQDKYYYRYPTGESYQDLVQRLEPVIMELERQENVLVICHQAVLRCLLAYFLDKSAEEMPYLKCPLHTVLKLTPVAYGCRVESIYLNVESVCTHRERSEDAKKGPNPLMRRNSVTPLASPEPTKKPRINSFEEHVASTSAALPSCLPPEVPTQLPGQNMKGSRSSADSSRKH
UniProt Q99623, whole entry, looked up: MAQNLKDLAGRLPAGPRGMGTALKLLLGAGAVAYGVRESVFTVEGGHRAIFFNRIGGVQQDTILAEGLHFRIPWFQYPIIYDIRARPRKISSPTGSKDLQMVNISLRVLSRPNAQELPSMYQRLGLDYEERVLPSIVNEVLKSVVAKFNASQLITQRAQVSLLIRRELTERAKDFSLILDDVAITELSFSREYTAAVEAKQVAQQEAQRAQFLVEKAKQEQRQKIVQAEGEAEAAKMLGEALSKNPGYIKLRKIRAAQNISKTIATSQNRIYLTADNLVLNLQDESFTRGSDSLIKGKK
UniProt Q96G03: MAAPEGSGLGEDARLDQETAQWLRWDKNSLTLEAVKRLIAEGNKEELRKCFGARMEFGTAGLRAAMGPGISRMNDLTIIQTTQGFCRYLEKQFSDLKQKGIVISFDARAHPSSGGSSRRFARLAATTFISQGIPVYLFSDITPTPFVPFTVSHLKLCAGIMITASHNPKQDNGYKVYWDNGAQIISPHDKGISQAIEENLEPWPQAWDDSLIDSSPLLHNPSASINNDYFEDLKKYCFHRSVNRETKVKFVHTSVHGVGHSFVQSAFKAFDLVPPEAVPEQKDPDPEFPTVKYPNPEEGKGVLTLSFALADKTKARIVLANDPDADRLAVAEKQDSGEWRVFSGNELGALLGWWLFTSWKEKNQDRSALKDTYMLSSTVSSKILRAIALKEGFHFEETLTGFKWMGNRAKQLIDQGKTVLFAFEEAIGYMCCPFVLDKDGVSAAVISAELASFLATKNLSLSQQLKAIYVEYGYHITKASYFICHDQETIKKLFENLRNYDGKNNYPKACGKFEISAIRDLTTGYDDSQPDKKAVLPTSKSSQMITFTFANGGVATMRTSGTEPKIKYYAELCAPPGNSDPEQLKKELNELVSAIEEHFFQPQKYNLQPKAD
PIGBOS1, A0A0B4J2F0, UniProt A0A0B4J2F0, whole entry, looked up: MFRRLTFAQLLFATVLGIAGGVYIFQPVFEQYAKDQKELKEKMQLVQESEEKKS
UniProt P30613: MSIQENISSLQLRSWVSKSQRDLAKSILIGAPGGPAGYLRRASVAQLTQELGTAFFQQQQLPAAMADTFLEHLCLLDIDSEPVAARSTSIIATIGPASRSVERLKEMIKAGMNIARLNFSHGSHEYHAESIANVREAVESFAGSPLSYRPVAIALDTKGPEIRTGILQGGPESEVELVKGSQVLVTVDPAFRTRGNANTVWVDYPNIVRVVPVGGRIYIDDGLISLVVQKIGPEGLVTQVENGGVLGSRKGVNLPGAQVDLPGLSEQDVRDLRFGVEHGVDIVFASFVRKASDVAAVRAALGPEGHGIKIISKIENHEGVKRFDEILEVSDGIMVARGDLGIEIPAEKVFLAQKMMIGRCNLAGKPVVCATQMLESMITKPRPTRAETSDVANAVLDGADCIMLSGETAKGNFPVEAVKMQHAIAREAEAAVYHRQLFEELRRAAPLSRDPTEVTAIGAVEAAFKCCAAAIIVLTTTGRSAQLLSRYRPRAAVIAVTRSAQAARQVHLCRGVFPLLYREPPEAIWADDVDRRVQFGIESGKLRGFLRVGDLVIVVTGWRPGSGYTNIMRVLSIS
UniProt Q6PCE3: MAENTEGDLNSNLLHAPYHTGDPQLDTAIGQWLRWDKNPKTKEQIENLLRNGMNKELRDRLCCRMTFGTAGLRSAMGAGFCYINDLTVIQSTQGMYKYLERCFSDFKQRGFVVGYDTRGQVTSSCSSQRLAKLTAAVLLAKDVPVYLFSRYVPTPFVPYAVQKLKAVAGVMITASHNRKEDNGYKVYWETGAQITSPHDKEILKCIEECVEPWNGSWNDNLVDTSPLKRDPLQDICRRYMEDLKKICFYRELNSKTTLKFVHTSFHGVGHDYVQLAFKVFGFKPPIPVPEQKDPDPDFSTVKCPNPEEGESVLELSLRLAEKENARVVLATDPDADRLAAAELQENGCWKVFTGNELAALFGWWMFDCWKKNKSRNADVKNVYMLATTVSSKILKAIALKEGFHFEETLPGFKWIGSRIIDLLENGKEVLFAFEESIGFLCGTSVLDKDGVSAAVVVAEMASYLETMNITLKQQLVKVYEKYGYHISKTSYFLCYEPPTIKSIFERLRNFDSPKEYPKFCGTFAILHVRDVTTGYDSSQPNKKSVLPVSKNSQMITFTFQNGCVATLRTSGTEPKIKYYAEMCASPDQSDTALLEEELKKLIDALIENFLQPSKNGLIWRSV
UniProt P35232: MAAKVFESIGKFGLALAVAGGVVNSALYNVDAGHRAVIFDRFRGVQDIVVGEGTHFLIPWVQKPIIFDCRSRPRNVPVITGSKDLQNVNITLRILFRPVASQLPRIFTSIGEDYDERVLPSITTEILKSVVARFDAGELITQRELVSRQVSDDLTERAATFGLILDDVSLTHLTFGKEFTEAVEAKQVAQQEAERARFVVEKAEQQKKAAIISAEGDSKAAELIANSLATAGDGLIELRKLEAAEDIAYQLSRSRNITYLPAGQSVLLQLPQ
UniProt Q16877: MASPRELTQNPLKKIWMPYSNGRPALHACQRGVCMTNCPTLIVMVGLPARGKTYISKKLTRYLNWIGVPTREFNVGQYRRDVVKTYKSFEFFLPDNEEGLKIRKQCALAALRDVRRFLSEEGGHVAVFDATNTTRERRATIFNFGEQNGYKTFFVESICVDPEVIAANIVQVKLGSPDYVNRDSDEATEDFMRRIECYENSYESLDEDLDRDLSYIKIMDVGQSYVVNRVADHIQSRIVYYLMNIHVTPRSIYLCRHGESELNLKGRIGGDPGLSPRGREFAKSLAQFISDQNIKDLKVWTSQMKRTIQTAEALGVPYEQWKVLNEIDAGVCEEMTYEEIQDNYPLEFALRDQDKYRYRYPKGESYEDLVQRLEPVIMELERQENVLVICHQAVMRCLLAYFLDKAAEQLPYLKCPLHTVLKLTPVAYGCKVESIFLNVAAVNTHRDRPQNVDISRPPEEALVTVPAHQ
UniProt P17858: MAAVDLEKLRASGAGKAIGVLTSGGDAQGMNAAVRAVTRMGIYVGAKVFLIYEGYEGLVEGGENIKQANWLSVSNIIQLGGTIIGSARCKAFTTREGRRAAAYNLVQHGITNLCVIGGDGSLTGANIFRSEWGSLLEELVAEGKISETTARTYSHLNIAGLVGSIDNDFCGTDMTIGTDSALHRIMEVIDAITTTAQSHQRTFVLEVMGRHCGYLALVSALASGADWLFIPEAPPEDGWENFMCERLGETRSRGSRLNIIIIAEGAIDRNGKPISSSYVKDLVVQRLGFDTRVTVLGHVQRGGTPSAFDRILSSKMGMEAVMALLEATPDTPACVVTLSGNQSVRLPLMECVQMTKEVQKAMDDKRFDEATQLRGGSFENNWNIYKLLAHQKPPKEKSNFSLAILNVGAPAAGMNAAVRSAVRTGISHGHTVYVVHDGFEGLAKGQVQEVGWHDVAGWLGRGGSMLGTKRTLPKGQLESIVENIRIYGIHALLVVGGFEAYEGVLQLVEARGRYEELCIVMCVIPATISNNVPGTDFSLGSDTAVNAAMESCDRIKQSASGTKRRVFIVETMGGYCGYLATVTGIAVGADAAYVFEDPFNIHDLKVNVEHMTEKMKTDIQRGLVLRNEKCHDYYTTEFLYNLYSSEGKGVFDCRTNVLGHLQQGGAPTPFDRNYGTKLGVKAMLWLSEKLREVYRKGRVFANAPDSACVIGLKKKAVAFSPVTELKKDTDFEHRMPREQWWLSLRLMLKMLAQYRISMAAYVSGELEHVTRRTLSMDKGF
UniProt Q8IZ21: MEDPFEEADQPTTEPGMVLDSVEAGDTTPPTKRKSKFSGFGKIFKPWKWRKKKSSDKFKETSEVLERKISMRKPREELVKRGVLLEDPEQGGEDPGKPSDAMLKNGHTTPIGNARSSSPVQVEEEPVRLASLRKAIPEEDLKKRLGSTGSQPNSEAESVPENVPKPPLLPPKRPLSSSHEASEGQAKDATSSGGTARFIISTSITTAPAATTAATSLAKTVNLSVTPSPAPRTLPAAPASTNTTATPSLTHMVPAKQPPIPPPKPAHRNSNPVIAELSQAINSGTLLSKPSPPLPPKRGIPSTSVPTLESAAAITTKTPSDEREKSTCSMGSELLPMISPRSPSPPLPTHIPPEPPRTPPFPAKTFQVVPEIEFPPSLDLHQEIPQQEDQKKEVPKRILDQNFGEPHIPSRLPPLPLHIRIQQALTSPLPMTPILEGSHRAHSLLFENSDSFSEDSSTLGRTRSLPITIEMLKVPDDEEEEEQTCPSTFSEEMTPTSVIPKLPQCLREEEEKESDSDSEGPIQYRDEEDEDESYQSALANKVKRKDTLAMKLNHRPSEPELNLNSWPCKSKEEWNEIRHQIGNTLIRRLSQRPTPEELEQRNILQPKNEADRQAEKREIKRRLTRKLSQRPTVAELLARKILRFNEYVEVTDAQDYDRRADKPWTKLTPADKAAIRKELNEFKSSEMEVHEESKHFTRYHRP
UniProt Q13608: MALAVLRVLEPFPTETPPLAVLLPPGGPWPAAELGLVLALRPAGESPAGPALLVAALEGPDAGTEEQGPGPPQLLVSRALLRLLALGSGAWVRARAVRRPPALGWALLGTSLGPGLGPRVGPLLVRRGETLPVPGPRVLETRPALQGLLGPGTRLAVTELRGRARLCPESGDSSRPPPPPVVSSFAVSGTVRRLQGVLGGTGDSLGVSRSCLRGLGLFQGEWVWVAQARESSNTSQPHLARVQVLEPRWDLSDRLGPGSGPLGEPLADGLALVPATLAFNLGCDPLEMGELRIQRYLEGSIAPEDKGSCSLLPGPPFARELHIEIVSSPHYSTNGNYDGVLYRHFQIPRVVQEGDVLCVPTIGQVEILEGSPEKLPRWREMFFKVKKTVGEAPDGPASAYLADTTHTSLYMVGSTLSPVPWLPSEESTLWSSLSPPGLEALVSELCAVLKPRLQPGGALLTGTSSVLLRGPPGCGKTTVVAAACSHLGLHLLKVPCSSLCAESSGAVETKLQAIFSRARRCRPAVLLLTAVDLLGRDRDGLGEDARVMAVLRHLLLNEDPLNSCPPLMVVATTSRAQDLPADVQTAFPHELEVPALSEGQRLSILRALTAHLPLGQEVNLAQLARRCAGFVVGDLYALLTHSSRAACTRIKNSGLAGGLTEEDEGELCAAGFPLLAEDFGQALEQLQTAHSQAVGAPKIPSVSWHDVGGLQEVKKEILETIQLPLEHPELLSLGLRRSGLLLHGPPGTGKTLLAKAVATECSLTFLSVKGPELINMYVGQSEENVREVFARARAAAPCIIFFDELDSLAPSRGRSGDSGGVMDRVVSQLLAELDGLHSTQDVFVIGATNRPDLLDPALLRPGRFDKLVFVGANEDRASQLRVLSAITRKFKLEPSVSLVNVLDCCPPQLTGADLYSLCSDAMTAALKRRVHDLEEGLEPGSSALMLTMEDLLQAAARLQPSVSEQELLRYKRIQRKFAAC
UniProt Q9GZP4: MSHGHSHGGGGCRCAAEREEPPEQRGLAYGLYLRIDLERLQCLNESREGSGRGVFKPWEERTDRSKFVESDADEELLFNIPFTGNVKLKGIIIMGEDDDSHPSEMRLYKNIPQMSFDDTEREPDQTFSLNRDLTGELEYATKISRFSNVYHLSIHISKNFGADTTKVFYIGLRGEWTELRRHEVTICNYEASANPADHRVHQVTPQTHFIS

compound: CC[C@@H]1C(=O)N(C)c2cnc(Nc3ccc(C(=O)NC4CCN(C)CC4)cc3OC)nc2N1C1CCCC1; assay: log2 fold change, soluble protein after heating vs DMSO (PISA); higher = thermal stabilisation; K562 cells, 10 uM, 30 min; active = over 0.2 and 3.5 SD of the protein, either way, in both replicates (recomputed)
Method in brief: (§1)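 Soluble protein was defined as the supernatant after 21,000xg for 90 min. It came from K562 cells at 2×10^6 cells/mL given 10 μM compound for 30 min, heated in aliquots for 3 min across 48°C-58°C, pooled, and extracted in PBS with 0.5% NP-40 at 4°C, and was quantified by TMTpro 16plex LC-MS/MS with equalised channel sums. Thermal stability against control samples, from duplicates, is reported as log2 fold change.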

Target | log2 fold change
PIGW (UniProt Q7Z7B1) | inactive: -0.05
PGP (UniProt A6NDG6) | inactive: 0.023
PFKM isoform 3 (UniProt P08237) | inactive: 0.016
PLA2G12A (UniProt Q9BZM1) | inactive: -0.081
PFKFB3 isoform 4 (UniProt Q16875) | inactive: -0.043
PHB2 (UniProt Q99623) | inactive: -0.005
PGM2 (UniProt Q96G03) | inactive: 0.033
PIGBOS1, A0A0B4J2F0 | inactive: 0.026
PHACTR2 isoform 4 (UniProt O75167) | inactive: 0.035
PKLR (UniProt P30613) | inactive: 0.014
PHKB isoform 3 (UniProt Q93100) | inactive: -0.062
PFDN4 (UniProt Q9NQP4) | inactive: -0.055
PGM2L1 (UniProt Q6PCE3) | inactive: 0.002
PHF19 isoform 2 (UniProt Q5T6S3) | inactive: -0.092
PGAM1 (UniProt P18669) | inactive: -0.02
PLCH1 (UniProt Q4KWH8) | inactive: 0.082

Target | log2 fold change
PFKP (UniProt Q01813) | inactive: -0.018
PHPT1 (UniProt Q9NRX4) | inactive: -0.021
PHB (UniProt P35232) | inactive: 0.012
PFKFB4 (UniProt Q16877) | inactive: 0.053
PIK3R2 (UniProt O00459) | inactive: 0.07
PFKL isoform 2 (UniProt P17858) | inactive: 0.036
PFDN2 (UniProt Q9UHV9) | inactive: 0.057
PHF6 (UniProt Q8IWS0) | inactive: 0.095
PHF3 (UniProt Q92576) | inactive: 0.246
PHACTR4 isoform 2 (UniProt Q8IZ21) | inactive: 0.039
PEX6 (UniProt Q13608) | inactive: -0.05
PLAA (UniProt Q9Y263) | inactive: -0.013
PGS1 (UniProt Q32NB8) | inactive: -0.048
PI4KA (UniProt P42356) | inactive: 0.082
PITHD1 (UniProt Q9GZP4) | inactive: -0.024
PLEC (UniProt Q15149) | inactive: 0.118

compound: CC[C@@H]1C(=O)N(C)c2cnc(Nc3ccc(C(=O)N[C@H]4CC[C@H](N5CCN(CC6CC6)CC5)CC4)cc3OC)nc2N1C(C)C [volasertib]; assay: as above
Method in brief: as §1

Target | log2 fold change
PIGW (UniProt Q7Z7B1) | inactive: -0.023
PGP (UniProt A6NDG6) | inactive: 0.025
PFKM isoform 3 (UniProt P08237) | inactive: 0.012
PLA2G12A (UniProt Q9BZM1) | inactive: -0.191
PFKFB3 isoform 4 (UniProt Q16875) | inactive: -0.114
PHB2 (UniProt Q99623) | inactive: 0.059
PGM2 (UniProt Q96G03) | inactive: 0.061
PIGBOS1, A0A0B4J2F0 | inactive: -0.122
PHACTR2 isoform 4 (UniProt O75167) | inactive: -0.011
PKLR (UniProt P30613) | inactive: -0.007
PHKB isoform 3 (UniProt Q93100) | inactive: -0.148
PFDN4 (UniProt Q9NQP4) | inactive: 0.054
PGM2L1 (UniProt Q6PCE3) | inactive: -0.014
PHF19 isoform 2 (UniProt Q5T6S3) | inactive: -0.267
PGAM1 (UniProt P18669) | inactive: 0.051
PLCH1 (UniProt Q4KWH8) | inactive: -0.059

Target | log2 fold change
PFKP (UniProt Q01813) | inactive: 0.038
PHPT1 (UniProt Q9NRX4) | inactive: 0.065
PHB (UniProt P35232) | inactive: 0.094
PFKFB4 (UniProt Q16877) | inactive: -0.098
PIK3R2 (UniProt O00459) | inactive: -0.188
PFKL isoform 2 (UniProt P17858) | inactive: -0.015
PFDN2 (UniProt Q9UHV9) | inactive: 0.073
PHF6 (UniProt Q8IWS0) | inactive: 0.068
PHF3 (UniProt Q92576) | inactive: 0.193
PHACTR4 isoform 2 (UniProt Q8IZ21) | inactive: 0.068
PEX6 (UniProt Q13608) | inactive: 0.004
PLAA (UniProt Q9Y263) | inactive: -0.149
PGS1 (UniProt Q32NB8) | inactive: -0.032
PI4KA (UniProt P42356) | inactive: -0.173
PITHD1 (UniProt Q9GZP4) | inactive: 0.029
PLEC (UniProt Q15149) | inactive: 0.04

compound: CC[C@H](C)N1C=C(C2=C(C=C(C=C21)C3=CN=C(C=C3)N4CCNCC4)C(=O)NCC5=C(C=C(NC5=O)C)C)C; assay: as above
Method in brief: as §1

Target | log2 fold change
PIGW (UniProt Q7Z7B1) | inactive: 0.038
PGP (UniProt A6NDG6) | inactive: -0.036
PFKM isoform 3 (UniProt P08237) | inactive: -0.008
PLA2G12A (UniProt Q9BZM1) | inactive: 0.111
PFKFB3 isoform 4 (UniProt Q16875) | inactive: 0.02
PHB2 (UniProt Q99623) | inactive: -0.035
PGM2 (UniProt Q96G03) | inactive: -0.041
PIGBOS1, A0A0B4J2F0 | inactive: -0.016
PHACTR2 isoform 4 (UniProt O75167) | inactive: -0.289
PKLR (UniProt P30613) | inactive: -0.032
PHKB isoform 3 (UniProt Q93100) | inactive: 0.015
PFDN4 (UniProt Q9NQP4) | inactive: 0.008
PGM2L1 (UniProt Q6PCE3) | inactive: -0.032
PHF19 isoform 2 (UniProt Q5T6S3) | inactive: 0.036
PGAM1 (UniProt P18669) | inactive: -0.016
PLCH1 (UniProt Q4KWH8) | inactive: 0.041

Target | log2 fold change
PFKP (UniProt Q01813) | inactive: -0.026
PHPT1 (UniProt Q9NRX4) | inactive: 0.012
PHB (UniProt P35232) | inactive: -0.057
PFKFB4 (UniProt Q16877) | inactive: 0.081
PIK3R2 (UniProt O00459) | inactive: 0
PFKL isoform 2 (UniProt P17858) | inactive: -0.002
PFDN2 (UniProt Q9UHV9) | inactive: -0.044
PHF6 (UniProt Q8IWS0) | inactive: 0.058
PHF3 (UniProt Q92576) | inactive: 0.062
PHACTR4 isoform 2 (UniProt Q8IZ21) | inactive: 0.014
PEX6 (UniProt Q13608) | inactive: -0.003
PLAA (UniProt Q9Y263) | inactive: 0.06
PGS1 (UniProt Q32NB8) | inactive: 0.032
PI4KA (UniProt P42356) | inactive: -0.019
PITHD1 (UniProt Q9GZP4) | inactive: 0.033
PLEC (UniProt Q15149) | inactive: -0.025
